# Source: the supplement of paper PMC11542785
# Where a name gives a salt, the structure may show the parent alone. Some of the results follow. Single values are uncertain, as repeats are few or missing.
# Tested on: Drosophila melanogaster DPAGT1 (Alg7) RNAi eye model
# Test: eye size Z-score vs DMSO-treated DPAGT1 model flies; higher = larger eye (suppression of DPAGT1 phenotype)
# Conditions: 5 uM
structure (smiles),measurement,setting,value
O=C(O)CN(CCN(CC(=O)O)CC(=O)O)CCN(CC(=O)O)CC(=O)O [Pentetic acid],eye size Z-score,,-0.19
C#CCN(C)CCCOc1ccc(Cl)cc1Cl [Clorgyline hydrochloride],eye size Z-score,,0.86
Cn1c(=O)c2c(ncn2CCO)n(C)c1=O [Etofylline],eye size Z-score,,0.14
COc1ccccc1N1CCN(CCCNc2cc(=O)n(C)c(=O)n2C)CC1 [Urapidil hydrochloride],eye size Z-score,,-1.02
COc1nc(N)nc2c1ncn2[C@@H]1O[C@H](CO)[C@@H](O)[C@@H]1O [Nelarabine],eye size Z-score,,0.64
OC[C@H]1O[C@H](O[C@H]2O[C@H](CO)[C@@H](O)[C@H](O)[C@H]2O)[C@H](O)[C@@H](O)[C@@H]1O [Trehalose dihydrate],eye size Z-score,,1.07
CCC(=O)OCC(=O)[C@@]1(OC(=O)CC)[C@@H](C)C[C@H]2[C@@H]3CCC4=CC(=O)C=C[C@]4(C)[C@@]3(Cl)[C@@H](O)C[C@@]21C [Beclomethasone dipropionate],eye size Z-score,,-0.42
CCN(CC)Cc1cc(Nc2ccnc3cc(Cl)ccc23)ccc1O [Amodiaquine dihydrochloride dihydrate],eye size Z-score,,0.48
COCC(=O)O[C@]1(CCN(C)CCCc2nc3ccccc3[nH]2)CCc2cc(F)ccc2[C@@H]1C(C)C [Mibefradil hydrochloride],eye size Z-score,,1.06
C=CCSCC1Nc2cc(Cl)c(S(N)(=O)=O)cc2S(=O)(=O)N1 (stereo not given) [Althiazide],eye size Z-score,,-0.45
c1ccc(CN(CC2=NCCN2)c2ccccc2)cc1 [Antazoline hydrochloride],eye size Z-score,,0.19
CN(C)CC/C=C1/c2ccccc2COc2ccc(CC(=O)O)cc21 [Olopatadine hydrochloride],eye size Z-score,,1.39
CC(C(=O)O)c1ccc(C(=O)c2ccccc2)s1 (stereo not given) [Tiaprofenic acid],eye size Z-score,,1.28
NC(=O)NS(=O)(=O)c1ccc(N)cc1 [Sulfacarbamide],eye size Z-score,,1.57
CC(=O)N(CC(O)CN(C(C)=O)c1c(I)c(C(=O)NCC(O)CO)c(I)c(C(=O)NCC(O)CO)c1I)c1c(I)c(C(=O)NCC(O)CO)c(I)c(C(=O)NCC(O)CO)c1I (stereo not given) [Iodixanol],eye size Z-score,,0.12
N=C(N)NCCN1CCCCCCC1 [Guanethidine sulfate],eye size Z-score,,-0.82
C#C[C@]1(O)CC[C@H]2[C@@H]3CCC4=CC(=O)CC[C@@H]4[C@H]3CC[C@@]21CC [(D-) Norgestrel],eye size Z-score,,-0.39
CC(CN(C)C)CN1c2ccccc2Sc2ccccc21 (stereo not given) [Trimeprazine tartrate],eye size Z-score,,-0.05
CC1(C)[C@@H](OC(=O)CCC(=O)O)CC[C@]2(C)[C@H]3C(=O)C=C4[C@@H]5C[C@@](C)(C(=O)O)CC[C@]5(C)CC[C@@]4(C)[C@]3(C)CC[C@@H]12 [Carbenoxolone disodium salt],eye size Z-score,,-0.33
C=CCOC(Cn1ccnc1)c1ccc(Cl)cc1Cl (stereo not given) [Enilconazole],eye size Z-score,,0.53
CC(CN(C)C)C(C)(O)Cc1ccc(Cl)cc1 (stereo not given) [Clobutinol hydrochloride],eye size Z-score,female,0.03
C[C@]1(Cn2ccnn2)[C@H](C(=O)O)N2C(=O)C[C@H]2S1(=O)=O [Tazobactam],eye size Z-score,,-0.27
CC[C@@H](CO)NCCN[C@@H](CC)CO [Ethambutol dihydrochloride],eye size Z-score,,0.9
CC(=O)OCC(=O)[C@@]1(OC(C)=O)[C@@H](C)C[C@H]2[C@@H]3C[C@H](F)C4=CC(=O)C=C[C@]4(C)[C@@]3(F)[C@@H](O)C[C@@]21C [Diflorasone Diacetate],eye size Z-score,,-0.57
CCN(CC)CCOCCOC(=O)C(CC)(CC)c1ccccc1 [Oxeladin citrate],eye size Z-score,,0.3
CCCOc1ccc(C(=O)OCCN(CC)CC)cc1N [Proparacaine hydrochloride],eye size Z-score,,0.02
NC1CCN(c2nc3c(cc2F)c(=O)c(C(=O)O)cn3-c2ccc(F)cc2F)C1 (stereo not given) [Tosufloxacin hydrochloride],eye size Z-score,,-0.2
COC(=O)Nc1nc2cc([S+]([O-])c3ccccc3)ccc2[nH]1 (stereo not given) [Oxfendazole],eye size Z-score,,0.44
COc1ccccc1OCC(O)COC(N)=O (stereo not given) [Methocarbamol],eye size Z-score,,-0.64
Cc1cc(N)c2ccccc2[n+]1CCCCCCCCCC[n+]1c(C)cc(N)c2ccccc21 [Dequalinium dichloride],eye size Z-score,,0.24
Nc1ccn([C@@H]2CS[C@H](CO)O2)c(=O)n1 [Lamivudine],eye size Z-score,,1.02
CO/N=C(\C(=O)N[C@@H]1C(=O)N2C(C(=O)OC(C)OC(C)=O)=C(COC(N)=O)CS[C@H]12)c1ccco1 (stereo not given in full) [Cefuroxime axetil],eye size Z-score,,-0.23
NC(=O)[C@@H]1CCCN1C(=O)[C@H](Cc1c[nH]cn1)NC(=O)[C@@H]1CCC(=O)N1 [Thyrotropin-Releasing Hormone],eye size Z-score,,-0.54
O=C(c1ccccc1)c1ccc2n1CCC2C(=O)O (stereo not given) [Ketorolac tromethamine],eye size Z-score,,0.51
CCOC(=O)[C@@](C)(N)Cc1ccc(O)c(O)c1 [Methyldopate hydrochloride],eye size Z-score,,0
COc1c(N2CCNC(C)C2)c(F)cc2c(=O)c(C(=O)O)cn(C3CC3)c12 (stereo not given) [Gatifloxacin],eye size Z-score,,1.08
CN1Cc2c(N)cccc2C(c2ccccc2)C1 (stereo not given) [Nomifensine maleate],eye size Z-score,,0.84
CCN[C@@H]1C[C@H](N)[C@@H](O[C@H]2OC(CN)=CC[C@H]2N)[C@H](O)[C@H]1O[C@H]1OC[C@](C)(O)[C@H](NC)[C@H]1O [Netilmicin sulfate],eye size Z-score,,1.17
CC(C)(O)c1ccccc1CC[C@@H](SCC1(CC(=O)O)CC1)c1cccc(/C=C/c2ccc3ccc(Cl)cc3n2)c1 [Montelukast],eye size Z-score,,-0.55
"c1ccc(CNc2ncnc3nc[nH]c23)cc1 [Aminopurine, 6-benzyl]",eye size Z-score,,0.87
Nc1ccc(S(=O)(=O)Nc2ccccn2)cc1 [Sulfapyridine],eye size Z-score,,0.71
Nc1ccn([C@@H]2O[C@H](CO)[C@@H](O)[C@@H]2O)c(=O)n1 [Cytarabine],eye size Z-score,,0.71
COc1ccnc(C[S+]([O-])c2nc3cc(OC(F)F)ccc3[nH]2)c1OC (stereo not given) [Pantoprazole sodium],eye size Z-score,,-0.02
C[C@@H]1C[C@H]2[C@@H]3C[C@H](F)C4=CC(=O)C=C[C@]4(C)[C@@]3(F)[C@@H](O)C[C@]2(C)[C@@]1(O)C(=O)COC(=O)C(C)(C)C [Flumethasone pivalate],eye size Z-score,,0.12
O=c1[nH]cnc2c1ncn2[C@@H]1O[C@H](CO)[C@@H](O)[C@H]1O [Inosine],eye size Z-score,,1.04
CCOc1ccccc1OC(c1ccccc1)C1CNCCO1 (stereo not given) [Reboxetine mesylate],eye size Z-score,,-0.13
CCN1/C(=C/C=C/C=C/c2sc3ccccc3[n+]2CC)Sc2ccccc21 [Dithiazanine iodide],eye size Z-score,,-0.14
CN(C)CCCN1c2ccccc2Sc2ccc(Cl)cc21 [Chlorpromazine hydrochloride],eye size Z-score,,-0.27
COc1ccc(CC2c3cc(OC)c(OC)cc3CC[N+]2(C)CCC(=O)OCCCCCOC(=O)CC[N+]2(C)CCc3cc(OC)c(OC)cc3C2Cc2ccc(OC)c(OC)c2)cc1OC (stereo not given) [Atracurium besylate],eye size Z-score,,0.45
CC(=O)[C@H]1CC[C@H]2[C@@H]3CC=C4C[C@@H](O)CC[C@]4(C)[C@H]3CC[C@]12C [Pregnenolone],eye size Z-score,,0.56
CC(C(=O)O)c1ccc2c(c1)CC(=O)c1ccccc1S2 (stereo not given) [Zaltoprofen],eye size Z-score,,-0.54
CCN(CCO)CCCC(C)Nc1ccnc2cc(Cl)ccc12 (stereo not given) [Hydroxychloroquine sulfate],eye size Z-score,,-0.43
CCCCN1CCCCC1C(=O)Nc1c(C)cccc1C (stereo not given) [Bupivacaine hydrochloride],eye size Z-score,,0.29
CCOC(=O)NNc1nncc2ccccc12 [Todralazine hydrochloride],eye size Z-score,,1.32
CC(C)(C)c1ccc(C(O)CCCN2CCC(C(O)(c3ccccc3)c3ccccc3)CC2)cc1 (stereo not given) [Terfenadine],eye size Z-score,,1.46
CC(COc1ccccc1)NC(C)C(O)c1ccc(O)cc1 (stereo not given) [Isoxsuprine hydrochloride],eye size Z-score,,-0.53
CCCCC1(COC(=O)CCC(=O)O)C(=O)N(c2ccccc2)N(c2ccccc2)C1=O [Suxibuzone],eye size Z-score,,-0.29
COc1cc(NC(C)CCCN)c2ncccc2c1 (stereo not given) [Primaquine diphosphate],eye size Z-score,,-0.67
CCCCNc1c(C(=O)OCC)c(C)nc2c1cnn2CC [Tracazolate hydrochloride],eye size Z-score,,1.08
COc1cc(-c2ccc(=O)[nH]n2)ccc1OC(F)F [Zardaverine],eye size Z-score,,-0.28
CC1=C(/C=C/C(C)=C/C=C/C(C)=C\C(=O)O)C(C)(C)CCC1 [Isotretinoin],eye size Z-score,,-0.21
CC/C(=C(/CC)c1ccc(O)cc1)c1ccc(O)cc1 [Diethylstilbestrol],eye size Z-score,,-0.07
CSc1ccc2c(c1)N(CCC1CCCCN1C)c1ccccc1S2 (stereo not given) [Thioridazine hydrochloride],eye size Z-score,,-0.12
Cc1cc(-c2ccccc2)nnc1NCCN1CCOCC1 [Minaprine dihydrochloride],eye size Z-score,,0.53
NC(N)=Nc1nc(CSCC/C(N)=N/S(N)(=O)=O)cs1 [Famotidine],eye size Z-score,,0.43
CN(C)[C@@H]1C(O)=C(C(N)=O)C(=O)[C@@]2(O)C(O)=C3C(=O)c4c(O)cccc4[C@@](C)(O)[C@H]3[C@H](O)[C@@H]12 [Oxytetracycline dihydrate],eye size Z-score,,-0.11
Cc1cc(NS(=O)(=O)c2ccc(N)cc2)nc(C)n1 [Sulfisomidine],eye size Z-score,,0.08
Cc1ccsc1/C=C/C1=NCCCN1C [Morantel tartrate],eye size Z-score,,-0.2
CCCSS/C(CCO)=C(/C)N(C=O)Cc1cnc(C)nc1N [Prosultiamine],eye size Z-score,,0.89
Nc1nc(NC2CC2)c2ncn([C@H]3C=C[C@@H](CO)C3)c2n1 [Abacavir sulfate],eye size Z-score,,-1.06
CCOc1ccc2nc3cc(N)ccc3c(N)c2c1 [Ethacridine lactate],eye size Z-score,,0.47
CCN(CC)CCNc1ccc(CO)c2sc3ccccc3c(=O)c12 [Hycanthone],eye size Z-score,,0.59
CNC(C)CCC=C(C)C (stereo not given) [Isometheptene mucate],eye size Z-score,,-0.21
CC(C)(C)CC(C)(C)c1ccc(O)c(Cc2ccc(Cl)cc2Cl)c1 [Clofoctol],eye size Z-score,,-0.19
CN1CCN(c2c(F)cc3c(=O)c(C(=O)O)cn4c3c2OCN4C)CC1 [Marbofloxacin],eye size Z-score,,-0.2
CCOC(=O)c1ccc(N)cc1 [Benzocaine],eye size Z-score,,0.16
CCN(CC)CCOC(=O)C(c1ccccc1)c1ccccc1 [Adiphenine hydrochloride],eye size Z-score,,1.31
OC(CCCN1CCCCC1)(c1ccccc1)c1ccccc1 [Diphenidol hydrochloride],eye size Z-score,,-0.43
COc1cccc(OC)c1C(=O)N[C@@H]1C(=O)N2[C@@H]1SC(C)(C)[C@@H]2C(=O)O [Methicillin sodium],eye size Z-score,,-0.66
Cc1ccc(S(=O)(=O)NC(=O)NN2CCCCCC2)cc1 [Tolazamide],eye size Z-score,,0.78

# Fetched by structure from above, 3 records:
structure (smiles),measurement,setting,value
CO/N=C(\C(=O)N[C@@H]1C(=O)N2C(C(=O)OC(C)OC(C)=O)=C(COC(N)=O)CS[C@H]12)c1ccco1 (stereo not given in full) [Cefuroxime axetil],eye size Z-score,,-0.23
O=c1[nH]cnc2c1ncn2[C@@H]1O[C@H](CO)[C@@H](O)[C@H]1O [Inosine],eye size Z-score,,1.04
C=CCSCC1Nc2cc(Cl)c(S(N)(=O)=O)cc2S(=O)(=O)N1 (stereo not given) [Althiazide],eye size Z-score,,-0.45

# Structural class: the compounds so far containing a thiophene ring, fused or not
structure (smiles),measurement,setting,value
CC(C(=O)O)c1ccc(C(=O)c2ccccc2)s1 (stereo not given) [Tiaprofenic acid],eye size Z-score,,1.28
Cc1ccsc1/C=C/C1=NCCCN1C [Morantel tartrate],eye size Z-score,,-0.2
